Assay results as given in patent publication US7276528B2, “Compounds for the inhibition of nitric oxide synthase” (AstraZeneca AB, priority 2001, dated 2007).
Structures can show the parent of a compound that is named as a salt. Some entries share one result that the patent states for a list of compounds. At least one compound was matched to its structure with a doubt left.

Tests used:
Format in all cases: biochemical
Recombinant human nNOS = target: T1, Recombinant human nNOS (Homo sapiens, UniProt P29475); assay: Screen 2: recombinant human NO synthase inhibition, L-[3H]citrulline formation (nNOS); details: recombinant human enzyme expressed in E. coli; 60 min pre-incubation with NADPH; 3 μM [3H]arginine
T1 construct: made in house; host or cells: E. coli (lysate)
Method: (§1) Recombinant human NO synthases (iNOS, eNOS & nNOS) were expressed in E. coli and lysates were prepared in Hepes buffer (pH 7.4) containing co-factors (FAD, FMN, H4B), protease inhibitors, lysozyme and the detergent, CHAPS. These preparations were used, at suitable dilution, to assess inhibition of the various isoforms. Inhibition of NOS was determined by measuring the formation of L-[^3H]citrulline from L-[^3H]arginine using an adaptation of the method of Förstermann et al. Enzyme assays were performed in the presence of 3 μM [^3H]arginine, 1 mM NADPH and other co-factors required to support NOS activity (FAD, FMN, H4B, calmodulin, Ca^2+). […] Incubations continued for a further 60 min before the assays were quenched and [^3H]citrulline separated from unreacted substrate by chromatography on Dowex-50 W resin in a 96-well format.

Recombinant human eNOS = target: T2, Recombinant human eNOS (Homo sapiens, UniProt P29474); assay: Screen 2: recombinant human NO synthase inhibition, L-[3H]citrulline formation (eNOS); details: iNOS and nNOS versus eNOS
T2 construct: made in house; host or cells: E. coli (lysate)

Recombinant human iNOS = target: T3, Recombinant human iNOS (Homo sapiens, UniProt P35228); assay: Screen 2: recombinant human NO synthase inhibition, L-[3H]citrulline formation (iNOS); details: recombinant human enzyme expressed in E. coli; 60 min pre-incubation with NADPH; 3 μM [3H]arginine
T3 construct: made in house; host or cells: E. coli (lysate)
Method: as §1

Compound	IC50 (Recombinant human nNOS)	selectivity with respect to the inhibition of eNOS (Recombinant human eNOS)	IC50 (Recombinant human iNOS)
N#Cc1ccc(Cl)cc1Oc1cccc(CNCCO)c1 [Example 26, 4-Chloro-2-{3-[(2-(hydroxyethyl)amino)methyl]phenoxy}benzonitrile fumarate]	< 10 µM	good selectivity	< 10 µM
CNCc1cccc(Oc2cc(Cl)ccc2C#N)c1OCCO.O=C(O)/C=C/C(=O)O [Example 22, 4-Chloro-2-[2-(2-hydroxyethoxy)-3-(methylaminomethyl)phenoxy]-benzonitrile fumarate]	< 10 µM	good selectivity	< 10 µM
CN(C)Cc1cc(Oc2cc(Cl)ccc2C#N)ccc1F [Example 51, 4-Chloro-2-(3-dimethylaminomethyl-4-fluorophenoxy)benzonitrile]	< 10 µM	good selectivity	< 10 µM
CCc1c(CNC)cccc1Oc1cc(Cl)ccc1C#N.O=C(O)/C=C/C(=O)O [Example 46, 4-Chloro-2-(2-ethyl-3-methylaminomethyl-phenoxy)-benzonitrile fumarate]	< 10 µM	good selectivity	< 10 µM
CNCc1cc(Oc2cc(Cl)ccc2C#N)ccc1F.O=C(O)/C=C/C(=O)O [Example 52, 4-Chloro-2-(4-fluoro-3-methylaminomethyl-phenoxy)-benzonitrile fumarate]	< 10 µM	good selectivity	< 10 µM
CCc1c(CN)cccc1Oc1cc(Cl)ccc1C#N [Example 45, 2-(3-Aminomethyl-2-ethyl-phenoxy)-4-chloro-benzonitrile hemifumarate]	< 10 µM		< 10 µM
CCOc1c(CNC)cccc1Oc1cc(Cl)ccc1C#N.O=C(O)/C=C/C(=O)O [Example 18, 4-Chloro-2-[2-ethoxy-3-(methylaminomethyl)phenoxy]benzonitrile fumarate]	< 10 µM	good selectivity	< 10 µM
Cl.NCc1cccc(Oc2cc(Cl)ccc2[N+](=O)[O-])c1 [Example 3, 3-(5-Chloro-2-nitrophenoxy)benzenemethanamine hydrochloride]	< 10 µM	good selectivity	< 10 µM
CNCc1cccc(Oc2cc(OC)ccc2C#N)c1OC.O=C(O)/C=C/C(=O)O [Example 35, 4-Methoxy-2-(2-methoxy-3-methylaminomethyl-phenoxy)-benzonitrile fumarate]	< 10 µM	good selectivity	< 10 µM
CNCc1cccc(Oc2cc(Cl)ccc2C#N)c1OCCF.O=C(O)/C=C/C(=O)O [Example 19, 4-Chloro-2-[2-(2-fluoroethoxy)-3-(methylaminomethyl)phenoxy]benzonitrile fumarate]	< 10 µM	good selectivity	< 10 µM
CNCc1cc(O)cc(Oc2cc(Cl)ccc2C#N)c1 [Example 8, 4-Chloro-2-[3-hydroxy-5-[(methylamino)methyl]phenoxy]benzonitrile]	< 10 µM	good selectivity	< 10 µM
CNCc1cc(Oc2cc(Cl)ccc2C#N)ccc1OC.O=C(O)/C=C/C(=O)O [Example 11, 4-Chloro-2-(4-methoxy-3-methylaminomethyl-phenoxy)-benzonitrile fumarate]	< 10 µM	good selectivity	< 10 µM
CNCc1cc(Oc2cc(C(F)(F)F)ccc2C#N)ccc1-c1ccccc1.O=C(O)/C=C/C(=O)O [Example 16, 2-(2-Methylaminomethyl-biphenyl-4-yloxy)-4-trifluoromethyl-benzonitrile fumarate]	< 10 µM	good selectivity	< 10 µM
CNCc1ccc(Oc2cc(Cl)ccc2C#N)cc1OC.O=C(O)/C=C/C(=O)O [Example 14, 4-Chloro-2-(3-methoxy-4-methylaminomethyl-phenoxy)-benzonitrile fumarate]	< 10 µM	good selectivity	< 10 µM
CNC1CCCc2c(Oc3cc(Cl)ccc3C#N)cccc21.O=C(O)/C=C/C(=O)O (stereo not shown) [Example 41, 4-Chloro-2-(5-methylamino-5,6,7,8-tetrahydronaphthalen-1-yloxy)-benzonitrile fumarate]	< 10 µM	good selectivity	< 10 µM
CCCOc1c(CNC)cccc1Oc1cc(Cl)ccc1C#N.O=C(O)/C=C/C(=O)O [Example 21, 4-Chloro-2-(3-methylaminomethyl-2-propoxyphenoxy)benzonitrile fumarate]	< 10 µM	good selectivity	< 10 µM

Compound	IC50 (Recombinant human nNOS)	selectivity with respect to the inhibition of eNOS (Recombinant human eNOS)	IC50 (Recombinant human iNOS)
CCCc1c(CN(C)C)cccc1Oc1cc(Cl)ccc1C#N.O=C(O)/C=C/C(=O)O [Example 47, 4-Chloro-2-(3-dimethylaminomethyl-2-propylphenoxy)-benzonitrile fumarate]	< 10 µM	good selectivity	< 10 µM
Cc1ccc([N+](=O)[O-])c(Oc2cccc(CN)c2)c1.Cl [Example 2, 3-(5-Methyl-2-nitrophenoxy)benzenemethanamine hydrochloride]	< 10 µM	good selectivity	< 10 µM
CN(C)Cc1cccc(Oc2cc(Cl)ccc2C#N)c1.O=C(O)/C=C/C(=O)O [Example 25, 4-Chloro-2-[3-(dimethylaminomethyl)phenoxy]benzonitrile fumarate]	< 10 µM	good selectivity	< 10 µM
CNCc1ccc(Oc2cc(Cl)ccc2C#N)c(OC)c1.O=C(O)/C=C/C(=O)O [Example 13, 4-Chloro-2-(2-methoxy-4-methylaminomethyl-phenoxy)-benzonitrile fumarate]	< 10 µM	good selectivity	< 10 µM
CCSc1c(CN)cccc1Oc1cc(Cl)ccc1C#N [Example 59, 4-Chloro-2-(3-aminomethyl-2-ethylsulfanyl-phenoxy)-benzonitrile fumarate]	< 10 µM	good selectivity	< 10 µM
CNCc1cccc(Oc2nc(C)ccc2C#N)c1.O=C(O)/C=C/C(=O)O [Example 40, 6-Methyl-2-(3-methylaminomethyl-phenoxy)-nicotinonitrile fumarate]	< 10 µM	good selectivity	< 10 µM
CCCc1c(CNC)cccc1Oc1cc(Cl)ccc1C#N.O=C(O)/C=C/C(=O)O [Example 49, 4-Chloro-2-(3-methylaminomethyl-2-propyl-phenoxy)-benzonitrile fumarate]	< 10 µM	good selectivity	< 10 µM
Cl.N#Cc1ccc(Cl)cc1Oc1cccc(CN)c1 [Example 7, 2-[3-(Aminomethyl)phenoxy]-4-chlorobenzonitrile hydrochloride]	< 10 µM	good selectivity	< 10 µM
CCSc1c(CN(C)C)cccc1Oc1cc(Cl)ccc1C#N [Example 58, 4-Chloro-2-(3-dimethylaminomethyl-2-ethylsulfanyl-phenoxy)-benzonitrile fumarate]	< 10 µM	good selectivity	< 10 µM
CCSc1c(CNC)cccc1Oc1cc(Cl)ccc1C#N [Example 60, 4-Chloro-2-(2-ethysulfanyl-3-methylaminomethyl-phenoxy)-benzonitrile fumarate]	< 10 µM	good selectivity	< 10 µM
CSc1c(CN)cccc1Oc1cc(Cl)ccc1C#N [Example 56, 4-Chloro-2-(3-aminomethyl-2-methysulfanyl-phenoxy)-benzonitrile fumarate]	< 10 µM	good selectivity	< 10 µM
CNCc1cccc(Oc2c(C#N)ccc(C)c2F)c1OC.O=C(O)/C=C/C(=O)O [Example 36, 3-Fluoro-2-(2-methoxy-3-(methylaminomethyl)phenoxy)-4-methyl-benzonitrile fumarate]	< 10 µM	good selectivity	< 10 µM
CNCc1cccc(Oc2cc(C)ccc2[N+](=O)[O-])c1OC.O=C(O)/C=C/C(=O)O [Example 43, [2-Methoxy-3-(5-methyl-2-nitrophenoxy)benzyl]methylamine fumarate]	< 10 µM	good selectivity	< 10 µM
Cl.NCc1cccc(Oc2cc(F)ccc2[N+](=O)[O-])c1 [Example 4, 3-(5-Fluoro-2-nitrophenoxy)benzenemethanamine hydrochloride]	< 10 µM	good selectivity	< 10 µM
CCCc1c(CN)cccc1Oc1cc(Cl)ccc1C#N [Example 48, 2-(3-Aminomethyl-2-propyl-phenoxy)-4-chloro-benzonitrile hemifumarate]	< 10 µM		< 10 µM
